Consider 37 targets from the supplement of paper PMC7666118.

The chains behind the UniProt entries cited, without tags or fusion partners. Where a name states a change or a piece, a line headed by the entry shows the natural chain unless it says otherwise.
UniProt Q9UK41: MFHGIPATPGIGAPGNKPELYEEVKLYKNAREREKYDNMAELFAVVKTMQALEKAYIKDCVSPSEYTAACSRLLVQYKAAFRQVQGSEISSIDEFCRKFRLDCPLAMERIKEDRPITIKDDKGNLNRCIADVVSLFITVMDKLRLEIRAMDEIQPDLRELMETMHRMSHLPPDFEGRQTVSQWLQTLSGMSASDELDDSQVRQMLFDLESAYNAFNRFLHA
UniProt O95625: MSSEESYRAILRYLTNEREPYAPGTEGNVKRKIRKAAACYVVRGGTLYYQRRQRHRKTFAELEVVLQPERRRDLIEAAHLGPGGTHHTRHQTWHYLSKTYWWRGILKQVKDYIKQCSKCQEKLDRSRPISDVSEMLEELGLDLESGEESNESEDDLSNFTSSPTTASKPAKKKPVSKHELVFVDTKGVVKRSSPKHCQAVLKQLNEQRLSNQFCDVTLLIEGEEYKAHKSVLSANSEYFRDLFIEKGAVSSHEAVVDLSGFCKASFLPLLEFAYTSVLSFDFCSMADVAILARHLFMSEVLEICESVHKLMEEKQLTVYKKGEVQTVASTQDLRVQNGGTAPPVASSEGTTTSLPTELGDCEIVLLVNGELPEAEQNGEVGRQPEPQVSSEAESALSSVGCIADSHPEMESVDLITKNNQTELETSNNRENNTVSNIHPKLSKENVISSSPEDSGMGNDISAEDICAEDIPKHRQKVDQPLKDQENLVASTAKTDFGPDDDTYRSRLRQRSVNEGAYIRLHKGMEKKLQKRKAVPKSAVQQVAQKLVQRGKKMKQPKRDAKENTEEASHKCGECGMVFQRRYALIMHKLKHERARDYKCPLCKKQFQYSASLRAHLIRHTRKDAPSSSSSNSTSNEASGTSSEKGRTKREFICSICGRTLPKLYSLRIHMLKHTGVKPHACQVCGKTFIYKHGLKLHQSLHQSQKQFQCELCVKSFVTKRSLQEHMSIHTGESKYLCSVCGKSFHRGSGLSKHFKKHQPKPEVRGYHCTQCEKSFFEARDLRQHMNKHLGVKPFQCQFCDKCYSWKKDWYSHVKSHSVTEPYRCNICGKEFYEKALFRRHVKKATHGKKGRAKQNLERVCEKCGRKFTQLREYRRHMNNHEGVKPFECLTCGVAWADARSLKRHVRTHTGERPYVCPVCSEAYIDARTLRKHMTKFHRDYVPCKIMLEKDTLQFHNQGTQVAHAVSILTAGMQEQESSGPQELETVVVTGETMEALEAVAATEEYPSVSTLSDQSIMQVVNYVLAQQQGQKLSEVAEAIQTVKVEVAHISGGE
UniProt Q9UKW4: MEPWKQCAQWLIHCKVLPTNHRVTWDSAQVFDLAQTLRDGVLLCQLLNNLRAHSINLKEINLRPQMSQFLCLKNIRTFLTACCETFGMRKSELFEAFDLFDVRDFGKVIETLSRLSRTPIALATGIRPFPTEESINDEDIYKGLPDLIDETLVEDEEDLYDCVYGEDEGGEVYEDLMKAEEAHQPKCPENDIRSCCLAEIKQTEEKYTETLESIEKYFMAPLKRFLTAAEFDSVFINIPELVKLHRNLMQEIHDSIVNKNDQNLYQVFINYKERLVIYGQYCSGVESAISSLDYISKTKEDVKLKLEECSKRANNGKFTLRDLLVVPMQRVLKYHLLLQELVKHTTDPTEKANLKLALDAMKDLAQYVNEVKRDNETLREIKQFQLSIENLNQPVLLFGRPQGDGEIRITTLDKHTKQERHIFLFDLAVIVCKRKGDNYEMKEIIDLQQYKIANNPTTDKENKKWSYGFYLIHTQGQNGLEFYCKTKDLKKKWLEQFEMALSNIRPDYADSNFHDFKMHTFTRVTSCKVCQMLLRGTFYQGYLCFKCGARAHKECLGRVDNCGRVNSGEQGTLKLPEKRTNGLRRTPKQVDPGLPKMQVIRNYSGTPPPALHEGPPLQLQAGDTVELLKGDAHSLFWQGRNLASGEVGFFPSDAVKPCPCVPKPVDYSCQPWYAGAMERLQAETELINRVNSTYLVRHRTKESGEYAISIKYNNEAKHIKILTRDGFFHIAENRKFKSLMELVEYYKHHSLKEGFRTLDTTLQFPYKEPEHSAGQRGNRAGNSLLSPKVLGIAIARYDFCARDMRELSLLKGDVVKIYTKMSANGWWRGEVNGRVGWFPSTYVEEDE
UniProt O75844: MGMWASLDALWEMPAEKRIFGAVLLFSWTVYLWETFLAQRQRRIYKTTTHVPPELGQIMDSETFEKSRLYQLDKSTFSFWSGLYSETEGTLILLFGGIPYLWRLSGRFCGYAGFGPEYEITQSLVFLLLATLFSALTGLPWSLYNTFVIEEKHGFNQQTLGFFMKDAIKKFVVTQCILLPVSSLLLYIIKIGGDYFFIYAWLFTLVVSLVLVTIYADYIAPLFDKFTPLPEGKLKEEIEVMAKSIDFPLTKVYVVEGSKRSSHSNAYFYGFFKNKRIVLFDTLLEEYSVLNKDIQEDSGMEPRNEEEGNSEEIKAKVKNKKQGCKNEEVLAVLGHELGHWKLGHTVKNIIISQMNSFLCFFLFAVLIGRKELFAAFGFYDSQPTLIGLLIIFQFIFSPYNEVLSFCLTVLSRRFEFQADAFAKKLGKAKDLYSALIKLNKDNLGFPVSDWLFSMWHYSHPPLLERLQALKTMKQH
UniProt Q6N043: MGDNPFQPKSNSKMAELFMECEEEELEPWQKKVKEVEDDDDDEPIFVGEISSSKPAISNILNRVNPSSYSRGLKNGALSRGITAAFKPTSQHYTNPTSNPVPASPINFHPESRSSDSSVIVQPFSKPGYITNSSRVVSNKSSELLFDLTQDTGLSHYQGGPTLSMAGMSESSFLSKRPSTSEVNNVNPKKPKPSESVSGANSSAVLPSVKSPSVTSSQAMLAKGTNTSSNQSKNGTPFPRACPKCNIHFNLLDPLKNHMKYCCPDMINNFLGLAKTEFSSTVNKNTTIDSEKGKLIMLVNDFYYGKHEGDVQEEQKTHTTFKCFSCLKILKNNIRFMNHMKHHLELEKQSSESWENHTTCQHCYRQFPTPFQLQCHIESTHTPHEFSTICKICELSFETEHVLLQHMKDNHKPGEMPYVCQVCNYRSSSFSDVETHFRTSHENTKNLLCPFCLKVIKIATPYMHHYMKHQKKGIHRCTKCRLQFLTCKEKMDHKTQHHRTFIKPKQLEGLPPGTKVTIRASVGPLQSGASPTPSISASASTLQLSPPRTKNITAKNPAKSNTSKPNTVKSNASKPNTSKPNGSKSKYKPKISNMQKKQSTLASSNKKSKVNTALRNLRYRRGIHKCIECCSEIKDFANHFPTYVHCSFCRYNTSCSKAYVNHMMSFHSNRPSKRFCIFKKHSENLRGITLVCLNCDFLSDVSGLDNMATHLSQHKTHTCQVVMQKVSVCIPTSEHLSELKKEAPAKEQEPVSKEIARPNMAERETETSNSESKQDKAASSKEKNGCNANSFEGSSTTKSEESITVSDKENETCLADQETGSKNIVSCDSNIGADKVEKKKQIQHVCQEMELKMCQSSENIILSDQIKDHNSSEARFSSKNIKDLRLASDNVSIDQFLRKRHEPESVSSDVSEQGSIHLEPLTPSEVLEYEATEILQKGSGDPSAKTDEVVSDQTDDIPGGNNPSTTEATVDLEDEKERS
UniProt P17026: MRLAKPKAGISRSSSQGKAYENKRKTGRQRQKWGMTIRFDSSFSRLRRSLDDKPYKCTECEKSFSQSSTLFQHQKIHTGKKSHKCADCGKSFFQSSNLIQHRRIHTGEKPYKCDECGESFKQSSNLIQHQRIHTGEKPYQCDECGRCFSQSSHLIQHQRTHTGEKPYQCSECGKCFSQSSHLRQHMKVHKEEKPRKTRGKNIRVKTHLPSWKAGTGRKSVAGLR
UniProt Q9UPT8: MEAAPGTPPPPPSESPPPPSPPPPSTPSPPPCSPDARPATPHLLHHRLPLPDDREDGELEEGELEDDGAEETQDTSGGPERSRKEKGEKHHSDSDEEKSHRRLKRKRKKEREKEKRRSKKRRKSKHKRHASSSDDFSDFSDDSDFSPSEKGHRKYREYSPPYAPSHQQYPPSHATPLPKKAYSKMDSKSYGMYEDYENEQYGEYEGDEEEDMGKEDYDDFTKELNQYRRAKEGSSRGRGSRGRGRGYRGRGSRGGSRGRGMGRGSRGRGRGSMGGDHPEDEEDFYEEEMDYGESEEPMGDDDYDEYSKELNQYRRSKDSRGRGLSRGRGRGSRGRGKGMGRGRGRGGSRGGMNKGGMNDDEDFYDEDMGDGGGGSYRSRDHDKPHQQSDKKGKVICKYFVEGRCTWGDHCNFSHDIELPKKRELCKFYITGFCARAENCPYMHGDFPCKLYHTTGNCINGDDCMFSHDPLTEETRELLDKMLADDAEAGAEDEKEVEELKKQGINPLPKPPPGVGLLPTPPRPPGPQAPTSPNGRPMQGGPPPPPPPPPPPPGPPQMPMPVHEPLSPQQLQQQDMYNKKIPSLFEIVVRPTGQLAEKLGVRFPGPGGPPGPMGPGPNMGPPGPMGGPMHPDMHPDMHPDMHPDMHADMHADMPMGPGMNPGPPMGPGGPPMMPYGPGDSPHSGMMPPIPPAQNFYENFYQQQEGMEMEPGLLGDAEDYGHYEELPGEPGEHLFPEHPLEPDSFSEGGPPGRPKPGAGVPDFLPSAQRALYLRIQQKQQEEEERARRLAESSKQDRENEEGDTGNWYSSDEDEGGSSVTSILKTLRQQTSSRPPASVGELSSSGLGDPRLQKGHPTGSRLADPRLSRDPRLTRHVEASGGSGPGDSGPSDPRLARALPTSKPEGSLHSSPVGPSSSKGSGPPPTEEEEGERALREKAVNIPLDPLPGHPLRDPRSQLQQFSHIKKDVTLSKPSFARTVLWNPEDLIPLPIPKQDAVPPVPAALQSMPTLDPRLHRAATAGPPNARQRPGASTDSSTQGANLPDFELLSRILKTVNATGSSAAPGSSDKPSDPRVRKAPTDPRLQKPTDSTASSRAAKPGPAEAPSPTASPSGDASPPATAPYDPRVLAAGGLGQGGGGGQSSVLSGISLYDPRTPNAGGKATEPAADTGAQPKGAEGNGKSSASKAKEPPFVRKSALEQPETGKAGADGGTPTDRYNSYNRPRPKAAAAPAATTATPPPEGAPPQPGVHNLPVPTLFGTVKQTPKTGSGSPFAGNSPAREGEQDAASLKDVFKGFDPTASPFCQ
UniProt Q8IV63: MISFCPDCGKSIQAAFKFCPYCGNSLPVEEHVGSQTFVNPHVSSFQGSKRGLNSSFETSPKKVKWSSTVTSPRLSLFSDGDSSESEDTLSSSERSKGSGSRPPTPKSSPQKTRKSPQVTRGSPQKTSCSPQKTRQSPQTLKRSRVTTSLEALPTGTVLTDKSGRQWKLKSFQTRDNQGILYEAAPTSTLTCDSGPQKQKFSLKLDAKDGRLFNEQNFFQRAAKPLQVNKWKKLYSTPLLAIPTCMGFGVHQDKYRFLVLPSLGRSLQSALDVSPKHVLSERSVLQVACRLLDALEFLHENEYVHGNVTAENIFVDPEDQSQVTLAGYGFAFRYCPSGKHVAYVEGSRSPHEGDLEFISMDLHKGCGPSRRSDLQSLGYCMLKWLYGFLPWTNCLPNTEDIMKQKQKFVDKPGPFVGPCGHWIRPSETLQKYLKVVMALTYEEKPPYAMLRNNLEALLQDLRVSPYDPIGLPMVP
UniProt Q9UIJ5: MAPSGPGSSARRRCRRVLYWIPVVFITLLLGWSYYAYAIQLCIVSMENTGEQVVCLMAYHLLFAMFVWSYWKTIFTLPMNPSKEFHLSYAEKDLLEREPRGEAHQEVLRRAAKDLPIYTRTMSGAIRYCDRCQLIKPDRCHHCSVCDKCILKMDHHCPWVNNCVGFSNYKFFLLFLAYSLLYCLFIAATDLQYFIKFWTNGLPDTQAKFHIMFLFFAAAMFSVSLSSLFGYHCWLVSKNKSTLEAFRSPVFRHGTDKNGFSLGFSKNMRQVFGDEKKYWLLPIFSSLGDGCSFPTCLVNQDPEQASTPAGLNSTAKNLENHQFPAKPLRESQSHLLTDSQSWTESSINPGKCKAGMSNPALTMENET
UniProt Q9Y5J1: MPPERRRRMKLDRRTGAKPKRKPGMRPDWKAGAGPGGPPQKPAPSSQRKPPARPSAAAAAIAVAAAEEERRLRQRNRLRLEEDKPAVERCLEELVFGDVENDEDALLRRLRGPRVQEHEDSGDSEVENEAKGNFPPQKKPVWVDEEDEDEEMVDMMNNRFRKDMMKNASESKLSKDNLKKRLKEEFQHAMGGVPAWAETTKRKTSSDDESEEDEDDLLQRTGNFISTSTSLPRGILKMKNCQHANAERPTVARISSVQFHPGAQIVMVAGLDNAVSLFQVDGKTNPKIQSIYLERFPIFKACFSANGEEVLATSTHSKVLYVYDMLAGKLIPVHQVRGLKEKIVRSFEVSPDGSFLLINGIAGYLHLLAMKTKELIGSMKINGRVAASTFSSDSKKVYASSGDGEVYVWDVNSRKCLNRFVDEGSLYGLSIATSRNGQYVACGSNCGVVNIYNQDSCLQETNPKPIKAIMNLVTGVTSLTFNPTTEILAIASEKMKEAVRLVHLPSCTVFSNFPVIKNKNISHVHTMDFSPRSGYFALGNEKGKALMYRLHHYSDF

Some of the results follow.

Compound in this assay: COc1ccc(Cn2ccc3ccc(C(=O)NO)cc32)cc1
The experiment in a line: dose-dependent thermal stabilisation call (2D-TPP, DLPTP, 10% FDR) (binary (1 = stabilised)); higher = stabilised by the compound. The note with it: system: HL-60 intact cells; concentration range 0.04-10 µM.
On to WASH1 (UniProt A8K0Z3), for which the “dose-dependent thermal stabilisation call” value is inactive: 0. To WDR77 (UniProt Q9BQA1) belongs inactive: 0; to VDAC3 (UniProt Q9Y277), inactive: 0; to WDR19 (UniProt Q8NEZ3), inactive: 0. To ZNF143 (UniProt P52747) belongs inactive: 0.

For the target VPS28 (UniProt Q9UK41), the “dose-dependent thermal stabilisation call” value was inactive: 0. To UTP14A (UniProt Q9BVJ6) belongs inactive: 0; to VPS4B (UniProt O75351), inactive: 0; to USP8 (UniProt P40818), inactive: 0. As for WDR43 (UniProt Q15061), the “dose-dependent thermal stabilisation call” value was inactive: 0. To YOD1 (UniProt Q5VVQ6) belongs inactive: 0; to XPOT (UniProt O43592), inactive: 0; to ZGPAT (UniProt Q8N5A5), inactive: 0. To ZBTB11 (UniProt O95625) belongs inactive: 0; to ZC3H12D (UniProt A2A288), inactive: 0; to VAV3 (UniProt Q9UKW4), inactive: 0. To WBP4 (UniProt O75554) belongs inactive: 0; to ZMPSTE24 (UniProt O75844), inactive: 0; to WDR74 (UniProt Q6RFH5), inactive: 0. In the case of VTI1A (UniProt Q96AJ9), the “dose-dependent thermal stabilisation call” value was inactive: 0. To ZMYND8 (UniProt Q9ULU4) belongs inactive: 0; to VPS72 (UniProt Q15906), inactive: 0; to ZNF280D (UniProt Q6N043), inactive: 0. To VPS8 (UniProt Q8N3P4) belongs inactive: 0. To ZHX2 (UniProt Q9Y6X8) belongs inactive: 0.

As for ZNF22 (UniProt P17026), the “dose-dependent thermal stabilisation call” value is inactive: 0. In the case of WIPF1 (UniProt O43516), the “dose-dependent thermal stabilisation call” value was inactive: 0. In the case of XPO6 (UniProt Q96QU8), the “dose-dependent thermal stabilisation call” value is inactive: 0. ZC3H4 (UniProt Q9UPT8): the “dose-dependent thermal stabilisation call” value was inactive: 0. In the case of VRK3 (UniProt Q8IV63), the “dose-dependent thermal stabilisation call” value was inactive: 0.

Consider ZDHHC2 (UniProt Q9UIJ5), for which the “dose-dependent thermal stabilisation call” value is inactive: 0. As to WDR13 (UniProt Q9H1Z4), the “dose-dependent thermal stabilisation call” value was inactive: 0. To ZFYVE16 (UniProt Q7Z3T8) belongs inactive: 0; to ZDHHC6 (UniProt Q9H6R6), inactive: 0; to VPS39 (UniProt Q96JC1), inactive: 0. To UTP18 (UniProt Q9Y5J1) belongs inactive: 0. VAMP2 (UniProt P63027): the “dose-dependent thermal stabilisation call” value was inactive: 0.
